{"source": "paper PMC4129401", "binders": {"B1": {"name": "RPGRIP1 (protein, UniProt Q96KN7 1-1286)", "chain": "MSHLVDPTSGDLPVRDIDAIPLVLPASKGKNMKTQPPLSRMNREELEDSFFRLREDHMLVKELSWKQQDEIKRLRTTLLRLTAAGRDLRVAEEAAPLSETARRGQKAGWRQRLSMHQRPQMHRLQGHFHCVGPASPRRAQPRVQVGHRQLHTAGAPVPEKPKRGPRDRLSYTAPPSFKEHATNENRGEVASKPSELVSGSNSIISFSSVISMAKPIGLCMPNSAHIMASNTMQVEEPPKSPEKMWPKDENFEQRSSLECAQKAAELRASIKEKVELIRLKKLLHERNASLVMTKAQLTEVQEAYETLLQKNQGILSAAHEALLKQVNELRAELKEESKKAVSLKSQLEDVSILQMTLKEFQERVEDLEKERKLLNDNYDKLLESMLDSSDSSSQPHWSNELIAEQLQQQVSQLQDQLDAELEDKRKVLLELSREKAQNEDLKLEVTNILQKHKQEVELLQNAATISQPPDRQSEPATHPAVLQENTQIEPSEPKNQEEKKLSQVLNELQVSHAETTLELEKTRDMLILQRKINVCYQEELEAMMTKADNDNRDHKEKLERLTRLLDLKNNRIKQLEGILRSHDLPTSEQLKDVAYGTRPLSLCLETLPAHGDEDKVDISLLHQGENLFELHIHQAFLTSAALAQAGDTQPTTFCTYSFYDFETHCTPLSVGPQPLYDFTSQYVMETDSLFLHYLQEASARLDIHQAMASEHSTLAAGWICFDRVLETVEKVHGLATLIGAGGEEFGVLEYWMRLRFPIKPSLQACNKRKKAQVYLSTDVLGGRKAQEEEFRSESWEPQNELWIEITKCCGLRSRWLGTQPSPYAVYRFFTFSDHDTAIIPASNNPYFRDQARFPVLVTSDLDHYLRREALSIHVFDDEDLEPGSYLGRARVPLLPLAKNESIKGDFNLTDPAEKPNGSIQVQLDWKFPYIPPESFLKPEAQTKGKDTKDSSKISSEEEKASFPSQDQMASPEVPIEAGQYRSKRKPPHGGERKEKEHQVVSYSRRKHGKRIGVQGKNRMEYLSLNILNGNTPEQVNYTEWKFSETNSFIGDGFKNQHEEEEMTLSHSALKQKEPLHPVNDKESSEQGSEVSEAQTTDSDDVIVPPMSQKYPKADSEKMCIEIVSLAFYPEAEVMSDENIKQVYVEYKFYDLPLSETETPVSLRKPRAGEEIHFHFSKVIDLDPQEQQGRRRFLFDMLNGQDPDQGHLKFTVVSDPLDEEKKECEEVGYAYLQLWQILESGRDILEQELDIVSPEDLATPIGRLKVSLQAAAVLHAIYKEMTEDLFS"}}, "biological_target": "T1, nephrocystin-4 (encoded by NPHP4) (UniProt O75161)", "T1 sequence": "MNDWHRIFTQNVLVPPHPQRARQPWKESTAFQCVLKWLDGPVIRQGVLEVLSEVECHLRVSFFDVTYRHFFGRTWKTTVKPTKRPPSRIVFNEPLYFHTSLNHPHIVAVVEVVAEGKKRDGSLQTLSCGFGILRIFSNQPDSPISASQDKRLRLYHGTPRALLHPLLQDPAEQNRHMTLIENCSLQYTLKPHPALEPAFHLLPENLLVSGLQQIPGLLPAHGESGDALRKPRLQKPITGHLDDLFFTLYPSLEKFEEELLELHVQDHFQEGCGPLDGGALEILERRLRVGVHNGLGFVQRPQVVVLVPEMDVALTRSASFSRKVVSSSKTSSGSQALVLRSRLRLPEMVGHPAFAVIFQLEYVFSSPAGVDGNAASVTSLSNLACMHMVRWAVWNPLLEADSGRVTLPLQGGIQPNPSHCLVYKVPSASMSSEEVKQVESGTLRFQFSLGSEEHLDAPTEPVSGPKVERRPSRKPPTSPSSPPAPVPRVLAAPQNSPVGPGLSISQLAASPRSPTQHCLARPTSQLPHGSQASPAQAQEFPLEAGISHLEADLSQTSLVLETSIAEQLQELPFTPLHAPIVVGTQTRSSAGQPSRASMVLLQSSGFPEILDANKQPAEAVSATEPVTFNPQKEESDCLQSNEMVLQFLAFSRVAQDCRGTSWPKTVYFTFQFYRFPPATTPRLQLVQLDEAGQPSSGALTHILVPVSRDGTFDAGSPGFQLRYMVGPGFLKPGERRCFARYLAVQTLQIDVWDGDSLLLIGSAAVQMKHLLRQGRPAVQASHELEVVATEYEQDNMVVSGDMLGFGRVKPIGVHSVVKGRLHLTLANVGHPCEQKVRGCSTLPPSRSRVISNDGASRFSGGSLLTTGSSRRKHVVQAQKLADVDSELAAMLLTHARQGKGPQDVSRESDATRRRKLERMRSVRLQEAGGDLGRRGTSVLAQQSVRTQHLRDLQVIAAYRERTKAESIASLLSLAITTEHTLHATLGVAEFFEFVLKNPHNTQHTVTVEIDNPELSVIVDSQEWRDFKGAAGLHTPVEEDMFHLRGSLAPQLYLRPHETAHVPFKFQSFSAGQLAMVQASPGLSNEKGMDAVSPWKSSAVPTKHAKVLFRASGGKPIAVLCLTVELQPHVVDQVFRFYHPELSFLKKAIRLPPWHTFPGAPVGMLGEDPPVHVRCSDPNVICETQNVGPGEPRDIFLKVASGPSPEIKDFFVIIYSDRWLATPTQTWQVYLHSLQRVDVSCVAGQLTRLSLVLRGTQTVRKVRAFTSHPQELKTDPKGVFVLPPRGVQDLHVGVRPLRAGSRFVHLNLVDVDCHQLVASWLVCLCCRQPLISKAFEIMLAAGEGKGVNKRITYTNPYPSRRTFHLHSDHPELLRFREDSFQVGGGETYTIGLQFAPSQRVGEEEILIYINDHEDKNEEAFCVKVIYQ", "assay": "co-IP; HEK293T cells, cosynthesis for 48 hr; lysis in 50 mM Tris-HCl pH 7.5, 150 mM NaCl, 0.5% Triton X-100; anti-FLAG M2 agarose, 5 hr at 4°C; immunoblot with anti-HA or anti-FLAG", "note": "Results are given in words; binding and its absence hold for the method and conditions named. In cells and extracts the contact can be indirect. Some entries that bind do so weakly or less than the wild type."}
{"binder": "B1", "values": [{"measurement": "binding", "result": "binds"}]}
